From US20090074845A1, “TRANSDERMAL ACTIVE PRINCIPLE DELIVERY MEANS” (priority 2005, published 2009)

Legend:
[1] = patches F:D 1:1 across pig skin
[2] = test system: Varicella Zoster Virus (Ellen strain)
[3] = Diffusional release of D and F from drug-in-adhesive patches; type: physicochemical
[4] = Drug permeation through porcine ear skin (Franz diffusion cells)
[5] = at therapeutic concentrations; cited from earlier work
[6] = 72 hours

NS(=O)(=O)c1cc(C(=O)O)c(NCc2ccco2)cc1Cl [Furosemide, 4-chloro-N-furfuryl-5-sulfamoylanthranilic acid]
Apparent flux maximum [1]: 0.158 μgcm^−2 h^−1 | MRC5 cell metabolism (MTT assay) (MRC5 cells): normal levels of metabolism | inhibition [2]: ~50% | Apparent maximum flux (Collodion F:D 1:1 across pig skin): 4.3423 μgcm^−2 h^−1 | AMF (Collodion, calculated between 6-12 hr): 4.3423 μg cm^−2 h^−1 | maximum mass released, maximal dose of furosemide [3]: ~432.02 μg cm^−2 | rate of furosemide penetrating porcine ear skin [4]: 4.32e-08 cm/s | Kp Mean ([4]; through porcine ear skin, mean over formulations): 4.32e-07 cm/s | unbound fraction [5]: 2.3-4.4% | accumulation within the skin [6]: did not accumulate within the skin
